Measured values published in the supplement of paper PMC6078165.

Test system: MDAMB468
Assay: relative JC-1 red fluorescence (viability) vs pre-drug, coculture with fibroblast (fraction); higher = more viable cancer cells
Method: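 JC-1 labelled TNBC cells cocultured 1:1 (1,500 cells each) with CellTrace Violet stained primary or stromal fibroblasts in 384-well plates in FluoroBrite medium, treated with one of 42 anticancer drugs at 0.1, 1, 10 or 100 uM. JC-1 red fluorescence (mitochondrial integrity in cancer cells only) was read by plate reader every 8 h for 72 h. Values are normalised to each well's pre-drug value. The stock of one drug was tenfold lower, so its dose labels may be too high.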

O=C(O)CCCc1ccc(N(CCCl)CCCl)cc1 [Chlorambucil]
relative JC-1 red fluorescence
Details	8 h	16 h	24 h	32 h	40 h	48 h	56 h	64 h	72 h
10 µM, coculture fibroblast: C12385	0.842	0.769	0.7112	0.643	0.5891	0.57	0.523	0.489	0.46
10 µM, coculture fibroblast: H6013	0.8596	0.8348	0.78176	0.7599	0.7197	0.7282	0.697	0.6741	0.6331
10 µM, coculture fibroblast: H6019	0.8391	0.806	0.771	0.722	0.683	0.675	0.632	0.599	0.581
10 µM, coculture fibroblast: H6076	0.898	0.948	0.911	0.912	0.857	0.847	0.807	0.801	0.83
10 µM, coculture fibroblast: H6231	0.834	0.9245	0.87	0.854	0.797	0.768	0.711	0.679	0.67
10 µM, coculture fibroblast: HADF	0.858	0.836	0.781	0.759	0.69	0.68	0.624	0.609	0.569
10 µM, coculture fibroblast: HCFa	0.8562	0.817	0.735	0.694	0.629	0.611	0.558	0.521	0.491
10 µM, coculture fibroblast: HCPF	0.8533	0.888	0.889	0.865	0.797	0.7688	0.7152	0.696	0.675
10 µM, coculture fibroblast: HHSteC	0.8759	0.835	0.788	0.749	0.706	0.706	0.644	0.614	0.567
10 µM, coculture fibroblast: HMF	0.823	0.974	0.883	0.842	0.775	0.755	0.699	0.673	0.646
10 µM, coculture fibroblast: HPFa	0.8957	0.889	0.847	0.802	0.763	0.758	0.687	0.659	0.59
10 µM, coculture fibroblast: HUF	0.877	0.79	0.741	0.679	0.635	0.604	0.558	0.532	0.51
10 µM, coculture fibroblast: Hs5	0.947	0.914	0.852	0.82	0.752	0.718	0.683	0.646	0.665
10 µM, coculture fibroblast: Hs27A	0.8407	0.803	0.736	0.7328	0.663	0.657	0.608	0.578	0.543
10 µM, coculture fibroblast: Hs343T	0.857	0.939	0.8735	0.8498	0.775	0.745	0.6925	0.677	0.647
10 µM, coculture fibroblast: WS1	0.82	0.754	0.7038	0.6473	0.594	0.565	0.524	0.494	0.474
100 µM, coculture fibroblast: C12385	0.8939	0.8315	0.7814	0.7236	0.661	0.634	0.566	0.507	0.48
100 µM, coculture fibroblast: H6013	0.8957	0.849	0.812	0.792	0.756	0.75	0.718	0.693	0.629
100 µM, coculture fibroblast: H6019	0.85	0.779	0.7479	0.667	0.6	0.552	0.481	0.428	0.407
100 µM, coculture fibroblast: H6076	0.927	0.929	0.886	0.92	0.844	0.838	0.806	0.787	0.864
100 µM, coculture fibroblast: H6231	0.872	0.955	0.885	0.892	0.826	0.811	0.772	0.738	0.743
100 µM, coculture fibroblast: HADF	0.909	0.872	0.79	0.78	0.715	0.6854	0.629	0.5929	0.521
100 µM, coculture fibroblast: HCFa	0.889	0.8	0.774	0.737	0.6579	0.642	0.581	0.536	0.473
100 µM, coculture fibroblast: HCPF	0.881	0.82	0.882	0.857	0.785	0.76	0.712	0.696	0.678
100 µM, coculture fibroblast: HHSteC	0.907	0.854	0.814	0.77	0.721	0.725	0.663	0.632	0.577
100 µM, coculture fibroblast: HMF	0.906	0.855	0.938	0.933	0.866	0.8573	0.799	0.7822	0.778
100 µM, coculture fibroblast: HPFa	0.934	0.866	0.78	0.707	0.64	0.612	0.545	0.514	0.447
100 µM, coculture fibroblast: HUF	0.9251	0.843	0.777	0.7032	0.651	0.599	0.5417	0.514	0.485
100 µM, coculture fibroblast: Hs5	0.946	0.92	0.9008	0.8953	0.817	0.788	0.739	0.6915	0.718
100 µM, coculture fibroblast: Hs27A	0.8569	0.782	0.761	0.744	0.684	0.674	0.631	0.607	0.559
100 µM, coculture fibroblast: Hs343T	0.895	0.784	0.886	0.899	0.886	0.874	0.817	0.794	0.77
100 µM, coculture fibroblast: WS1	0.8783	0.83	0.759	0.66	0.605	0.557	0.514	0.462	0.431

The reference is the same well before dosing, and untreated signal decays as well.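 Labels refer to human fibroblasts, largely primary: uterine (C12385, HUF), lung (H6013), bone (Hs27A), adrenal (HADF), skin (WS1), plus mammary HMF and breast cancer-associated Hs343T. Cancer lines are basal-like or mesenchymal-like triple-negative breast cancer. The paper counts as hits responses shifting over 3x the replicate standard deviation. The tissue of the other fibroblasts is not given here.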
